Test results taken from PMC12234153.
Results are given in words; binding and its absence hold for the method and conditions named. In cells and extracts the contact can be indirect. Some results given as binding are weak or reduced against the parent protein; the word gives no strength. Sequences can lack the tags named with a protein.

Molecular target: T1, SMAD4-FLAG (human), Q13485
T1 chain: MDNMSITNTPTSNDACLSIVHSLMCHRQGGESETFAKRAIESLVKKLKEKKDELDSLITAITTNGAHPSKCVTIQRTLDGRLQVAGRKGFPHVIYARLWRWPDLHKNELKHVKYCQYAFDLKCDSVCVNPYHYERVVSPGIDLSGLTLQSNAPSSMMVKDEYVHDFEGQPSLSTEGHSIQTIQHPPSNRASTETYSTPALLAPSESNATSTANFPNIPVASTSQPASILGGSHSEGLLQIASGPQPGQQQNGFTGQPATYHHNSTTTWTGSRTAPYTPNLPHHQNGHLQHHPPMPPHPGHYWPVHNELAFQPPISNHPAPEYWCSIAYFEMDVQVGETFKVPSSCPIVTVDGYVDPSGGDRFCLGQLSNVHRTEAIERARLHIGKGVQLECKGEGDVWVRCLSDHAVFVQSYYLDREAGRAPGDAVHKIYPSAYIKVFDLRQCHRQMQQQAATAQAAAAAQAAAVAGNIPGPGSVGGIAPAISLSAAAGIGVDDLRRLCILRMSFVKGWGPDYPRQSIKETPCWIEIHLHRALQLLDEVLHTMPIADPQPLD
Assay: co-IP; DHHC7 KO HEK293T cells transfected with WT or catalytically inactive (MUT) DHHC7-HA and the indicated SMAD2-HA and SMAD4-FLAG constructs; which protein was precipitated not given
Settings: remark: other sources report otherwise

binding: binds
B1: SMAD2-HA (wild type), Q15796 1-467 (protein)
chain: MSSILPFTPPVVKRLLGWKKSAGGSGGAGGGEQNGQEEKWCEKAVKSLVKKLKKTGRLDELEKAITTQNCNTKCVTIPSTCSEIWGLSTPNTIDQWDTTGLYSFSEQTRSLDGRLQVSHRKGLPHVIYCRLWRWPDLHSHHELKAIENCEYAFNLKKDEVCVNPYHYQRVETPVLPPVLVPRHTEILTELPPLDDYTHSIPENTNFPAGIEPQSNYIPETPPPGYISEDGETSDQQLNQSMDTGSPAELSPTTLSPVNHSLDLQPVTYSEPAFWCSIAYYELNQRVGETFHASQPSLTVDGFTDPSNSERFCLGLLSNVNRNATVEMTRRHIGRGVRLYYIGGEVFAECLSDSAIFVQSPNCNQRYGWHPATVCKIPPGCNLKIFNNQEFAALLAQSVNQGFEAVYQLTRMCTIRMSFVKGWGAEYRRQTVTSTPCWIELHLNGPLQWLDKVLTQMGSPSVRCSSMS
